This note sets out measurements from article PMC9114370.

By UniProt entry, the sequences of proteins in these tests, tags left out. Where a name states a change or a piece, a line headed by the entry shows the natural chain unless it says otherwise. Residues count along the entry.
UniProt Q13148, residues 1-102: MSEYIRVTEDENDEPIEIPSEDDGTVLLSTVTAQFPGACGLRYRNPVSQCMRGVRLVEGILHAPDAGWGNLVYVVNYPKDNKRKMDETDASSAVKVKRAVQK
UniProt P11021: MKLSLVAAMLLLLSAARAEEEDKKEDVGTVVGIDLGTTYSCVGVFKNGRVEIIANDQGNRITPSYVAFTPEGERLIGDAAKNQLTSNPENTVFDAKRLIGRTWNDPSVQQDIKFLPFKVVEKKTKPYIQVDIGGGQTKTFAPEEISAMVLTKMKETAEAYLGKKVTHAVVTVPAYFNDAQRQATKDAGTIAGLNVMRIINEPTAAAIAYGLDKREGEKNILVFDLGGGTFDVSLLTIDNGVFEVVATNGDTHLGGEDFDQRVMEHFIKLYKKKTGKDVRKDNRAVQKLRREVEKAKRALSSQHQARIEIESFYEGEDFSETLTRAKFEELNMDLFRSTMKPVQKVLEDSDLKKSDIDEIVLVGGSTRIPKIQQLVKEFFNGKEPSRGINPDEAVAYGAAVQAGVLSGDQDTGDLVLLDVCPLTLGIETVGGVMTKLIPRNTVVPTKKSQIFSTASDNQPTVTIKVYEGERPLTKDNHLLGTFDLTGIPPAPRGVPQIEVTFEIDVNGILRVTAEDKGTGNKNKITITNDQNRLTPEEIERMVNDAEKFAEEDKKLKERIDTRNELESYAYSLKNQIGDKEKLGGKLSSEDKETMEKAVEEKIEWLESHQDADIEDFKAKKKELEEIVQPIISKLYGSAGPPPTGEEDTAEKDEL

In the assay the target is TDP-43_(1–102) (human) (UniProt Q13148). As to the kind of experiment: MST; 50 nM labelled TDP-43 construct (RED-NTA labelling), ranging concentrations of Hsp70 SBD titrated, MST buffer, premium capillaries, 40% LED, medium MST power; no RNA; both purified.

No constants are given. Whether binding was seen depends on the method and setting. Binding can be weak; no strength is given.

With “HspA5 substrate binding domain (SBD) (from UniProt P11021) (domain or fragment)”, the binding entry is “binds”.
